In the supplement of paper PMC11732987, “Enantioselective OTUD7B fragment discovery through chemoproteomics screening and high-throughput optimisation” (Communications Chemistry, 2025):
The list shows a part of the results. The data scatter; read single values as rough.

Amino acid sequences for entries named in this document (tags omitted). A change or cut given only in a name is not applied to a line headed by its entry. Residues count along the entry.
UniProt Q9BZ95, 166-187: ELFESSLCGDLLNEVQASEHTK
UniProt P53384: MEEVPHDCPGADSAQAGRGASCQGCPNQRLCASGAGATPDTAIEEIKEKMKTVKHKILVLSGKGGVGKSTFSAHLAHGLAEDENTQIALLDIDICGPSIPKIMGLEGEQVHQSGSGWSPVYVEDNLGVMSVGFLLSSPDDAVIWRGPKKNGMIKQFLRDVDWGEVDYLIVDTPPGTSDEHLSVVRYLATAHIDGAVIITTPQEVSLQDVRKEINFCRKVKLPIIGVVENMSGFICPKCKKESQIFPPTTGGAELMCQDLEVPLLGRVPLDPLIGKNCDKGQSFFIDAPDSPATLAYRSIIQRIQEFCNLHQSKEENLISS
UniProt Q5SWX8, 214-239: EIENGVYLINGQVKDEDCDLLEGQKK
UniProt O15294: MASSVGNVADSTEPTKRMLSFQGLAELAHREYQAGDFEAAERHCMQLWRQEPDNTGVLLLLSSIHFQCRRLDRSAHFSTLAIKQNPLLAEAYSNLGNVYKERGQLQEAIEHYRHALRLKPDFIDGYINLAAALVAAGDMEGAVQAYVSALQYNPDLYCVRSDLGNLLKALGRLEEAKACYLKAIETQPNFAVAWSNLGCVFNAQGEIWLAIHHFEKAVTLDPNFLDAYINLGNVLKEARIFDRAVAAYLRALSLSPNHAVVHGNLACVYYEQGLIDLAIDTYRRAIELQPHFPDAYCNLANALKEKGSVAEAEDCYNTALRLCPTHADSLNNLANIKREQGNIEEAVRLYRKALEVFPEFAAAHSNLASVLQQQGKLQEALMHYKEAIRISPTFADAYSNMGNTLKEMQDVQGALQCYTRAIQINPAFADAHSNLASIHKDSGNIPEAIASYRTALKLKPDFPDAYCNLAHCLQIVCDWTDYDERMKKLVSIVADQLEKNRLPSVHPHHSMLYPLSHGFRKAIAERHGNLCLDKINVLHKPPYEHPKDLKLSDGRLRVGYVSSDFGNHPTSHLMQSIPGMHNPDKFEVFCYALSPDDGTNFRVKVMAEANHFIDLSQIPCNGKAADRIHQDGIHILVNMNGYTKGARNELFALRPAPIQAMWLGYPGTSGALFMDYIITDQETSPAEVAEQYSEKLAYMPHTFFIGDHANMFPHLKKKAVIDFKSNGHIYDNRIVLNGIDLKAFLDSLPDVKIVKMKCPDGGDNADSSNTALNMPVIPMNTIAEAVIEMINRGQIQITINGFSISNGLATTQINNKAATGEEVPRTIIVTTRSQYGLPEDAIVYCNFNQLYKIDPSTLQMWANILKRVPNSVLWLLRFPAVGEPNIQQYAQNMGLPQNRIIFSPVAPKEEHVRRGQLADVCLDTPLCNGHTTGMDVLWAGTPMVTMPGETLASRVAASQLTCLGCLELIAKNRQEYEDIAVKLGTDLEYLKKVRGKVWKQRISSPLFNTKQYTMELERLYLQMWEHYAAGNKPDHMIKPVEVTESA
UniProt Q99567: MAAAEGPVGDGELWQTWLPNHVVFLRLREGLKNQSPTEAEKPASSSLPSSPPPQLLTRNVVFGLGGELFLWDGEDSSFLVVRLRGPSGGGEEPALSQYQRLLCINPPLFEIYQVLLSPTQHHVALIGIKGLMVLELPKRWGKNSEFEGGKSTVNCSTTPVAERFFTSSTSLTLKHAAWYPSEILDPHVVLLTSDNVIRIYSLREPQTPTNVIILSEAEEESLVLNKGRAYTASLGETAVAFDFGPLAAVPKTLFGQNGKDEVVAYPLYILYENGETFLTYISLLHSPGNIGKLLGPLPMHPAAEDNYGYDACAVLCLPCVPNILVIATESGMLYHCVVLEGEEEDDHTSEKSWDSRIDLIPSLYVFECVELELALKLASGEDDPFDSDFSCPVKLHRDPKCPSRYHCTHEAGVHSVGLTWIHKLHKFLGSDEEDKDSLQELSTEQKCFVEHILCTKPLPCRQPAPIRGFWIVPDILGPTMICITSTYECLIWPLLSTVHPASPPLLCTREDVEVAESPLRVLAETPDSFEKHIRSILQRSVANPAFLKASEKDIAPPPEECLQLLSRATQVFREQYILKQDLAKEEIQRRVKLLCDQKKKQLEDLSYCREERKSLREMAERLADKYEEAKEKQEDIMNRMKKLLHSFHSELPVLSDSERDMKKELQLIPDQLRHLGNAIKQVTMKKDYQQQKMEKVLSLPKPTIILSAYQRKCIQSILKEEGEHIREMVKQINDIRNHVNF
UniProt P49116: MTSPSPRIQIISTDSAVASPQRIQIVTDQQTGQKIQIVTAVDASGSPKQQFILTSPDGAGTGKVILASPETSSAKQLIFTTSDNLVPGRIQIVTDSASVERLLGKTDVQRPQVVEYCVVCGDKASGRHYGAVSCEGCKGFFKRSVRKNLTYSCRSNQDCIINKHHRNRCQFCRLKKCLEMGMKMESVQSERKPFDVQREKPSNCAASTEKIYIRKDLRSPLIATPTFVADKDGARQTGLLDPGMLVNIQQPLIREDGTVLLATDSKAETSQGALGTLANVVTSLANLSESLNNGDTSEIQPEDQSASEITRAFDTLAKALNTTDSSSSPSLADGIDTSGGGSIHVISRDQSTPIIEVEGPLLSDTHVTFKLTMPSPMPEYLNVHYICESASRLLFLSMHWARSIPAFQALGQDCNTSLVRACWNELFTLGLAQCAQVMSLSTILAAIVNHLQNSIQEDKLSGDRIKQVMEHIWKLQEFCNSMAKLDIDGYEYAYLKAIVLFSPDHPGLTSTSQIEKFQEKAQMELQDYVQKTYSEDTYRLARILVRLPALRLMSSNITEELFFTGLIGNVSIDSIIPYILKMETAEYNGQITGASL
UniProt P49790, 556-586: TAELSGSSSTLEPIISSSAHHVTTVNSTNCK
UniProt O60313: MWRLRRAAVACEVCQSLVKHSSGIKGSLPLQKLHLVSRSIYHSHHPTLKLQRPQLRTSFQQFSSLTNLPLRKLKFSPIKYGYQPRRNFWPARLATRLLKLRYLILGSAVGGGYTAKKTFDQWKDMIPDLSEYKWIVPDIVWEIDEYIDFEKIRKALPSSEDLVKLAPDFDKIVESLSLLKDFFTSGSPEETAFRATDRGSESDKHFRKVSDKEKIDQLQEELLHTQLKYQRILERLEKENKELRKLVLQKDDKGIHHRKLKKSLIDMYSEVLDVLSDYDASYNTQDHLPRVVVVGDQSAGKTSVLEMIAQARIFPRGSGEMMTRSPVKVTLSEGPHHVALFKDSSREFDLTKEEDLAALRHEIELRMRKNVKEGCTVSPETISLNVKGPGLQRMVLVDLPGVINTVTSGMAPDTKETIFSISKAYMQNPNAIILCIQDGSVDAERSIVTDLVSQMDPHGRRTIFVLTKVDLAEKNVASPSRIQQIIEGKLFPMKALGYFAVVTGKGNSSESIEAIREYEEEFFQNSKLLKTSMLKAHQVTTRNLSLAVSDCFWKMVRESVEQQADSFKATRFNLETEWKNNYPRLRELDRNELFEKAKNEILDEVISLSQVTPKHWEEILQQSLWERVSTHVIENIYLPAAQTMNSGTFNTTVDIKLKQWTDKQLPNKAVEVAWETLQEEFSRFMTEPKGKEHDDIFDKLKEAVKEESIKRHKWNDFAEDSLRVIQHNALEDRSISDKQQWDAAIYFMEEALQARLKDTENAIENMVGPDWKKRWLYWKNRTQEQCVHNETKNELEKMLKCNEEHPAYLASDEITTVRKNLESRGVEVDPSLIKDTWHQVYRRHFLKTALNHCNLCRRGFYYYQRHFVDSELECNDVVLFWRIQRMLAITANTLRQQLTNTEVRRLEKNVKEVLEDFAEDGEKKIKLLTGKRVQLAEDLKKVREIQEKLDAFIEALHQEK
UniProt Q8N1F7: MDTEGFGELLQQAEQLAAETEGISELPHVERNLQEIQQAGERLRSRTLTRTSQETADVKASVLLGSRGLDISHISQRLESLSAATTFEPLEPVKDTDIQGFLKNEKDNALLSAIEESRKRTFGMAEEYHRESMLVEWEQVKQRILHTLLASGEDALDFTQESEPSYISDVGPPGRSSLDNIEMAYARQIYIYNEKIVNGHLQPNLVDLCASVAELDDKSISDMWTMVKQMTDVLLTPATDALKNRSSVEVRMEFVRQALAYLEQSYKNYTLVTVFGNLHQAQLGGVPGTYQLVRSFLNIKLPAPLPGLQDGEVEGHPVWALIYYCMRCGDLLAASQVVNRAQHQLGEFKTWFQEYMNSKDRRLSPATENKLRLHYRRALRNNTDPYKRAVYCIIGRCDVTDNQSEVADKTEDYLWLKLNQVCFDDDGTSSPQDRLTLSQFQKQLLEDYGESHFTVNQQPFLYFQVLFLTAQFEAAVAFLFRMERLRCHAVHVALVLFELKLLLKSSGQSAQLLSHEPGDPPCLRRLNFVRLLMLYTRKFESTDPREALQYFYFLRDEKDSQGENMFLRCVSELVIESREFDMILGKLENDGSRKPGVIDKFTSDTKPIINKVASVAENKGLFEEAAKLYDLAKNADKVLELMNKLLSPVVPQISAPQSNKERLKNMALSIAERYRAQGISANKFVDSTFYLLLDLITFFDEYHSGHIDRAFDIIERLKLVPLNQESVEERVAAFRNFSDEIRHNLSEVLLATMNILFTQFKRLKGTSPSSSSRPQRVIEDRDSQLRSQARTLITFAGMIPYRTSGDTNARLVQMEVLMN
UniProt P04150: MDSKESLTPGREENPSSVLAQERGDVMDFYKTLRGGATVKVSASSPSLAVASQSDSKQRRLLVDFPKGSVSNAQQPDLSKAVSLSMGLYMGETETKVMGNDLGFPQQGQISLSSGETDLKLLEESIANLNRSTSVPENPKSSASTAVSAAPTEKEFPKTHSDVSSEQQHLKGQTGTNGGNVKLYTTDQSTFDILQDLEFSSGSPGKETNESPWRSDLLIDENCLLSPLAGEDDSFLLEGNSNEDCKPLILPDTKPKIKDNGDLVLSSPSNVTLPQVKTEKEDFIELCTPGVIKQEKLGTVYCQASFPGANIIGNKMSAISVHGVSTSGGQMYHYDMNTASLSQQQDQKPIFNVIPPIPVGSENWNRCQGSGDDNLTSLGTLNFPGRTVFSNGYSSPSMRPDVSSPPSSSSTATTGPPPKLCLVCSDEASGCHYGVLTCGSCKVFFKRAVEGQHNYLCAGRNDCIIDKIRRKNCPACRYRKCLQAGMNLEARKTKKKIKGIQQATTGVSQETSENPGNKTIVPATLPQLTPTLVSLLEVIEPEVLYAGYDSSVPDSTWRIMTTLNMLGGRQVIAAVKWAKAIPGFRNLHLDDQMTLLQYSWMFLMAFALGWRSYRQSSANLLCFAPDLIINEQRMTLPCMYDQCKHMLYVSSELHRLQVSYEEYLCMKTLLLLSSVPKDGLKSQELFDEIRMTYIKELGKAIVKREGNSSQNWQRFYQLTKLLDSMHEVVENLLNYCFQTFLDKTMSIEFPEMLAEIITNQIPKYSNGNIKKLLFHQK
UniProt O15381, 384-403: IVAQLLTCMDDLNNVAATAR
UniProt O95989: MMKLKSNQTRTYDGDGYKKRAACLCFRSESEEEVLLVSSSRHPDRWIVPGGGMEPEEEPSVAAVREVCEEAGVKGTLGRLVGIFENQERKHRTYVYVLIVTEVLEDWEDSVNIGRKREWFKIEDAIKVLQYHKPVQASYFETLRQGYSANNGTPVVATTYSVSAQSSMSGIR
UniProt Q9BXB5: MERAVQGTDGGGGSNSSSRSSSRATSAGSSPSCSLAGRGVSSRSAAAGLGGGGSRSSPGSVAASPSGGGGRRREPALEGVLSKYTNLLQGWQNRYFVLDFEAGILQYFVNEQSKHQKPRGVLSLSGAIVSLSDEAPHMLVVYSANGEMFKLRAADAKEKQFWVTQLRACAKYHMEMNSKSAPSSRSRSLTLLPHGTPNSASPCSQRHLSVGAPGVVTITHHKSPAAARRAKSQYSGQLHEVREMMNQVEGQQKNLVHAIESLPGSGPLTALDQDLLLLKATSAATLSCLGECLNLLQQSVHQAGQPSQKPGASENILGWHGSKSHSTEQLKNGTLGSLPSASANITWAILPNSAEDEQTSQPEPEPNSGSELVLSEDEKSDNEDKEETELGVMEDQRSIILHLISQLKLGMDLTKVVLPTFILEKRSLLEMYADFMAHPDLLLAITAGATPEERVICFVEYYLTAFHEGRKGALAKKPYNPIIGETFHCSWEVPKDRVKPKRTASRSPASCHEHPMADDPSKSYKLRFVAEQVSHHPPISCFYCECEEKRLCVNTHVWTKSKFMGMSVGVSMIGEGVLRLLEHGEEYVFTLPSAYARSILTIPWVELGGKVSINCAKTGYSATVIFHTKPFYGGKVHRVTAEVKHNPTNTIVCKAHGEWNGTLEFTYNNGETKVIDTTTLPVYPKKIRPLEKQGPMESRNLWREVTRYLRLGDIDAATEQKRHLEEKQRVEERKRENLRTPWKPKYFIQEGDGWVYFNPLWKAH
UniProt Q9BVL2, 241-260: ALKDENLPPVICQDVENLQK
UniProt Q96IY1: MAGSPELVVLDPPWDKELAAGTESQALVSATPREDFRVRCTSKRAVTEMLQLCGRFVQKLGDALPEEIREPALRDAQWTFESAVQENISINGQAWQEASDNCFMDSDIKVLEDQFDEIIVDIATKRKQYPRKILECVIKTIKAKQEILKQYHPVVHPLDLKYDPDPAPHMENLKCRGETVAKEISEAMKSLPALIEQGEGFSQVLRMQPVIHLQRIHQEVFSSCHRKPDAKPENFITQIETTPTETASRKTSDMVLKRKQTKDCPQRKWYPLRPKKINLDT

What was measured:
[1] = compound: ClCC(=O)N[C@@H]1CCCc2ccccc12; assay: log2 mean competition ratio of IA-DTB cysteine labelling (DMSO/compound) (log2 ratio); higher = stronger cysteine engagement by compound; details: treatment time: 4 h, cell line lysate: HEK293T
Protocol: (§1)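 IA-DTB competitive cysteine chemoproteomics in HEK293T RIPA lysate. Lysates were treated with compound 29 or 30 at 50 or 200 µM for 4 h, then IA-DTB (500 µM, 1 h), trypsin-digested, NeutrAvidin-enriched and analysed by diaPASEF. Competition ratio = intensity DMSO / intensity compound (n=4 treated, n=64 DMSO); binding: mean log2 CR ≥ 1 and p ≤ 0.05 plus QC filters. Target is the cysteine site.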

[2] = compound: ClCC(=O)N[C@H]1CCCc2ccccc12; assay: as above; details: treatment time: 4 h, cell line lysate: HEK293T
Protocol: as §1

Target	log2 mean competition ratio ([1]; 50 µM)	log2 mean competition ratio ([1]; 200 µM)	log2 mean competition ratio ([2]; 50 µM)	log2 mean competition ratio ([2]; 200 µM)
NUP160 C480 (UniProt Q12769)	0.381	0.281	0.348	0.315
OAS3 C350 (UniProt Q9Y6K5)	-0.0664	-0.248	-0.235	-0.218
NUMA1 C735 (UniProt Q14980)	0.0328	-0.00953	-0.36	-0.00082
NOTCH3 C1222 (UniProt Q9UM47)	-0.13	0.0741	-0.152	0.295
NSUN5 C146 (UniProt Q96P11)	0.217	0.125	-0.192	0.106
ORC1 C529 (UniProt Q13415)	0.141	0.449	0.257	0.337
ORC5 C409 (UniProt O43913)	0.365	0.357	-0.194	0.191
NTHL1 C118 (UniProt P78549)	0.0079	0.219	0.431	-0.105
ORC3 C483 (UniProt Q9UBD5)	-0.255	-0.277	-0.0442	-0.348
OTUB2 C13 (UniProt Q96DC9)	-0.269	-0.302	0.189	-0.0425
NSD3 C173 (UniProt Q9BZ95)	0.0329	-0.306	-0.211	-0.226
OGFR C87 (UniProt Q9NZT2)	0.366	0.187	0.585	0.201
OBI1 C65 (UniProt Q5W0B1)	-0.0528	0.191	-0.447	0.318
NUBP1 C8 (UniProt P53384)	-0.366	0.289	-0.315	0.263
ODR4 C141 (UniProt Q5SWX8)	–	–	0.515	-0.251
OGT C531 (UniProt O15294)	–	–	-0.25	-0.218
NSUN4 C258 (UniProt Q96CB9)	–	–	-0.134	-0.109
NTPCR C110 (UniProt Q9BSD7)	–	–	-0.0279	0.0427
NUP88 C155 (UniProt Q99567)	-0.307	-0.513	-0.383	-0.684
NR2C2 C204 (UniProt P49116)	–	–	-0.308	-0.144
NUP107 C621 (UniProt P57740)	–	–	0.473	-0.205
NUP153 C585 (UniProt P49790)	–	–	0.894	-0.212
OPA1 C375 (UniProt O60313)	–	–	-0.094	-0.106
NSDHL C132	–	–	0.268	-0.189

Target	log2 mean competition ratio ([1]; 50 µM)	log2 mean competition ratio ([1]; 200 µM)	log2 mean competition ratio ([2]; 50 µM)	log2 mean competition ratio ([2]; 200 µM)
NSUN5 C41 (UniProt Q96P11)	–	–	0.057	-0.146
OSBPL6 C301 (UniProt Q9BZF3)	-0.442	–	-0.321	0.144
NT5C2 C181	–	–	-0.169	-0.0944
OSGEPL1 C390 (UniProt Q9H4B0)	–	–	-0.152	0.183
NPAT C1020 (UniProt Q14207)	–	–	0.489	-0.00556
ODR4 C231 (UniProt Q5SWX8)	-0.607	0.279	-0.444	0.14
OGA C878 (UniProt O60502)	0.0597	-0.0479	-0.171	-0.146
NR3C2 C279	-0.0465	0.149	0.0391	-0.119
NUP93 C569 (UniProt Q8N1F7)	-0.0523	-0.0923	-0.273	-0.134
OSBPL1A C303 (UniProt Q9BXW6)	–	-0.139	-0.473	0.107
NPC1 C1261 (UniProt O15118)	–	–	-0.139	0.106
NR3C1 C463 (UniProt P04150)	–	–	0.234	0.668
OSBPL3 C337 (UniProt Q9H4L5)	0.212	-0.238	-0.0826	-0.236
NVL C391 (UniProt O15381)	–	–	-0.0851	0.192
NUDT3 C68 (UniProt O95989)	0.0173	-0.215	0.0844	0.395
OPHN1 C24 (UniProt O60890)	–	–	-0.591	0.0069
OSBPL10 C33 (UniProt Q9BXB5)	–	–	0.226	0.183
NUP93 C328 (UniProt Q8N1F7)	–	–	-0.209	-0.192
NR3C1 C481 (UniProt P04150)	–	0.413	0.037	0.257
NUP58 C252 (UniProt Q9BVL2)	–	–	0.0172	-0.0134
NUP160 C1187 (UniProt Q12769)	-0.609	0.546	-0.324	0.284
NSL1 C175 (UniProt Q96IY1)	–	–	0.441	0.201
NSUN2 C599 (UniProt Q08J23)	–	–	0.107	0.2
NVL C192 (UniProt O15381)	-0.106	0.0912	0.0327	0.281

Quoted from above for reference:
Target	log2 mean competition ratio ([1]; 50 µM)	log2 mean competition ratio ([1]; 200 µM)	log2 mean competition ratio ([2]; 50 µM)	log2 mean competition ratio ([2]; 200 µM)
OSBPL3 C337 (UniProt Q9H4L5)	0.212	-0.238	-0.0826	-0.236
NVL C391 (UniProt O15381)	–	–	-0.0851	0.192
